Measurements published in PubChem BioAssay AID588329 (National Center for Advancing Translational Sciences (NCATS), 2011).
Inconclusive means that the source gave no clear call. Such entries were picked first, then a sample of the others. A potency beside an inconclusive call is a rough fit, not a confirmed value. Active and inactive are the calls of the source. The call rests on the fitted dose curve; in most records, active means well fitted inhibition curve with a large enough effect; inconclusive means small, poorly fitted or top-dose-only effect; inactive means flat fitted curve, though single readings scatter.

Test system: Trypanosoma brucei 6-phosphofructokinase (PFK)
Test: Confirmatory Assay to Find Inhibitors of T. brucei phosphofructokinase: ATP-depletion Assay
Conditions: recombinant T. brucei PFK, Kinase-Glo ATP depletion luminescence; series mostly up to 57.5 µM
Description: Various species of the protozoan family Trypanosomatidae are responsible for a range of serious human diseases in tropical and subtropical areas of the world. […] Many of the disorders caused by trypanosomatids are fatal if left untreated, but most currently used drugs are inefficient and toxic. […] Oxidative metabolism involving the mitochondrial tricarboxylic acid cycle and oxidative phosphorylation are repressed in these parasites, and recent RNA interference (RNAi) experiments have shown that even partial depletion of certain individual glycolytic enzymes can lead to the death of cultured parasites. One such glycolytic enzyme, phosphofructokinase (PFK), catalyzes the formation of fructose-1,6-bisphosphate (F1,6BP) and ADP from fructose-6-phosphate (F6P) and ATP, and in many metabolic circumstances makes an important contribution to the control of flux through the glycolytic pathway. As a specific glycolytic target, PFK is particularly attractive as it catalyzes the first irreversible step in glycolysis, and structural and kinetic studies have shown very substantial and essential differences from corresponding host enzymes, allowing for the discovery of parasite-selective inhibitors. NIH Chemical Genomics Center [NCGC] NIH Molecular Libraries Probe Centers Network [MLPCN] MLPCN Grant: MH092153-01 Assay Submitter (PI): Malcom Walkinshaw, University of Edinburgh
Substrate buffer was dispensed into white, solid 1536-well plates at 3ul/well in 0.1M triethanolamine (TEA) buffer, pH 8.0, containing final concentrations of 5 mM MgCl2, 0.01% Tween20, 0.5 mM fructose-6-phosphate (F6P) and 0.1mM ATP. Then, 23nl of compounds or DMSO were delivered to each well using a pin tool. One ul T. brucei PFK (0.1M TEA, 0.01% Tween20, 0.1% bovine serum albumin (BSA) and 1.25nM PFK, final concentrations) was then dispensed, and plates were incubated at room temperature for 45 min. The luminescent detection reagent, Kinase-Glo Plus (Promega), was then added at 2ul/well and incubated for ten minutes at room temperature. The plates were measured on a ViewLux plate reader for luminescent signal using a clear filter with a one second exposure. The %Activity was determined from the corrected luminescence values. As no specific T. brucei PFK inhibitors have been identified in the literature, 1x (1.25nM) and 0x PFK enzyme controls (untreated) were included to normalize %Activity of identified inhibitors; 0x enzyme values corresponded to 100%Activity (full inhibition), while 1x PFK enzyme values were used to normalize 0% activity (no inhibition). The Kinase-Glo Plus protocol varies from the primary screen in that it measures ATP, rather than ADP, concentration, and thus provides a measure of substrate depletion, rather than of product formation. Concentration-response curves were fitted to the signals arising from the resulting luminescence. The concentration-effect curves were then classified based on curve quality (r2), response magnitude and degree of measured activity, and compounds were subsequently categorized based on their curve class. […] Keywords: T. brucei, phosphofructokinase, PFK, glycolysis, luminescence, MLSMR, MLPCN, NIH Roadmap, qHTS, NCGC

Row | Compound | Potency
1 | Cc1cc(NC(=O)c2ccc(NC(=O)Cc3ccc(Cl)c(Cl)c3)cc2)no1 | inactive
2 | Cc1cc(NS(=O)(=O)c2ccc(NS(=O)(=O)Cc3ccc(Cl)c(Cl)c3)cc2)no1 | inconclusive: 20.6 µM [inhibitor, partial curve]
3 | COc1ccc(CC(=O)Nc2ccc(S(=O)(=O)Nc3cc(C)on3)cc2)cc1OC | inactive
4 | Cc1cc(NS(=O)(=O)C2CCN(C(=O)Cc3ccc(Cl)c(Cl)c3)CC2)no1 | inconclusive: 36.6 µM [inhibitor, partial curve, poor fit]
5 | COc1ccc(CC(=O)Nc2ccc(S(=O)(=O)Nc3cc(C)on3)cc2)cc1C | inconclusive: 36.6 µM [inhibitor, partial curve]
6 | Cc1cc(NS(=O)(=O)c2ccc(NC(=O)C(C)(C)c3ccc(Cl)c(Cl)c3)cc2)no1 | inconclusive: 18.3 µM [inhibitor, partial curve]
7 | Cc1cc(NC(=O)c2csc(NC(=O)Cc3ccc(Cl)c(Cl)c3)n2)no1 | inconclusive: 1.63 µM [inhibitor, full curve]
8 | Cc1cc(NS(=O)(=O)c2ccc(NC(=O)Cc3ccccc3)cc2)no1 | inconclusive: 20.6 µM [inhibitor, partial curve]
9 | Cc1cc(NS(=O)(=O)CCNC(=O)Cc2ccc(Cl)c(Cl)c2)no1 | inconclusive: 23.1 µM [inhibitor, partial curve]
10 | CCOC(=O)c1cccc(NS(=O)(=O)c2ccc(NC(=O)Cc3ccc(Cl)c(Cl)c3)cc2)c1 | inconclusive: 1.03 µM [inhibitor, full curve, poor fit]
11 | Cc1cc(NS(=O)(=O)c2ccc(NC(=O)Cc3ccc(C)c(C)c3)cc2)no1 | active: 16.3 µM
12 | Cc1cc(NS(=O)(=O)c2ccc(NC(=O)c3ccc(Cl)c(Cl)c3)cc2)no1 | inconclusive: 16.3 µM [inhibitor, partial curve]

Part of the list above, tab-delimited:
Row	Compound	Potency
10	CCOC(=O)c1cccc(NS(=O)(=O)c2ccc(NC(=O)Cc3ccc(Cl)c(Cl)c3)cc2)c1	inconclusive: 1.03 µM [inhibitor, full curve, poor fit]
12	Cc1cc(NS(=O)(=O)c2ccc(NC(=O)c3ccc(Cl)c(Cl)c3)cc2)no1	inconclusive: 16.3 µM [inhibitor, partial curve]
